Results are given in words; binding and its absence hold for the method and conditions named. In cells and extracts the contact can be indirect. A yes stands for co-enrichment or nearness to the bait. Other partners may have been found.

Sequences of proteins named here, by UniProt entry; tags and fusion partners are left off.
UniProt P35222: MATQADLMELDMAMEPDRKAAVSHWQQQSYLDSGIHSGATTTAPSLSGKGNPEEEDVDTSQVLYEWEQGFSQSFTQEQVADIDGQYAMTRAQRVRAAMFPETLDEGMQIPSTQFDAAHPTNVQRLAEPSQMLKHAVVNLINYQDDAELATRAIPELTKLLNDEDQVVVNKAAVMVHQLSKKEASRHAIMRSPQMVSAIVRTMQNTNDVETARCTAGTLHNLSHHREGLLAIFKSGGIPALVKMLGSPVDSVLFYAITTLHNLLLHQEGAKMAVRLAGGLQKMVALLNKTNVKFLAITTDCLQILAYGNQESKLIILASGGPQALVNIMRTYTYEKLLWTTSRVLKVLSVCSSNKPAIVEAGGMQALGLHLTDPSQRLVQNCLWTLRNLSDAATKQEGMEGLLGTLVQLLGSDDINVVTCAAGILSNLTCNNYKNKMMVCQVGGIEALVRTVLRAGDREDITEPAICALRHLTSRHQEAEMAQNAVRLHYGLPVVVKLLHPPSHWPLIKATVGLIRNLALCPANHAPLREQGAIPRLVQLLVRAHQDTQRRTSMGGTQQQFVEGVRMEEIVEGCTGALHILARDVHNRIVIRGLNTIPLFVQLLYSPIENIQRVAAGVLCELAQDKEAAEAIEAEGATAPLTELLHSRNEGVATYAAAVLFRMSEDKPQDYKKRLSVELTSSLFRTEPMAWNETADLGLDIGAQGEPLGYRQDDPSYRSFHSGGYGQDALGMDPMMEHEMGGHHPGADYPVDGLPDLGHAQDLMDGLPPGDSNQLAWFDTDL

The target in this assay is T1, CUEDC2 (CUE domain containing 2), over-expressed in HEK-293FT cells (UniProt Q9H467).
T1 sequence: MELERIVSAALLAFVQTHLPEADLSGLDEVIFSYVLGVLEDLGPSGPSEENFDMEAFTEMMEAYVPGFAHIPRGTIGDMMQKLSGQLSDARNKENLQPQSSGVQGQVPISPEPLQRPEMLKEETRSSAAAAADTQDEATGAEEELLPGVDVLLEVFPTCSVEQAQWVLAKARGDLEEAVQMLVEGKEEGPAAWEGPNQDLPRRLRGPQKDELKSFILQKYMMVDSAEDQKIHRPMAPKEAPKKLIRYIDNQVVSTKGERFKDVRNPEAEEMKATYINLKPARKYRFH
The assay can be described thus: affinity purification with mass spectrometry; HEK-293FT cells transfected with CUEDC2 or a control plasmid; cell extracts immunoprecipitated with an anti-CUEDC2 antibody; LC-MS/MS.

Consider “β-catenin, endogenous in HEK-293FT cells (from UniProt P35222 1-781)”, for which the binding result is reported as “binds”.

For the origin of these results see publication PMC9563079.
